Measurements published in PubChem BioAssay AID485353 (National Center for Advancing Translational Sciences (NCATS), 2010).
About 610 (0.18%) of roughly 330,000 compounds were called active. Inconclusive results, whose numbers are uncertain, are shown with a selection of clear calls. Calls come from the whole dose curve. A potency beside an inconclusive call is a rough fit, not a confirmed value.

test: qHTS of Yeast-based Assay for SARS-CoV PLP; note: nearly all actives have a fitted effect of over 55% in size; settings: S. cerevisiae expressing SARS-CoV PLpro; Potency: growth rescue; series mostly up to 32.9 µM
Potency is the fitted concentration of half-maximal effect.

Row | SMILES | Potency
1 | Cc1onc(-c2ccccc2)c1C(=O)Nc1ccccc1NC(=O)c1c(-c2ccccc2)noc1C | inconclusive: 5.62 µM [activator, partial curve]
2 | COc1ccc(CCC(=O)N2CCN(S(=O)(=O)c3ccc4ccccc4c3)CC2)cc1 | inconclusive: 3.55 µM [activator, partial curve]
3 | Cc1nn(-c2ccccn2)c2c1C(c1ccccc1Cl)C1=C(N2)c2ccccc2C1=O (stereo not drawn) | inactive
4 | CCCC1c2ccc(C)n2CCN1C(=O)Nc1ccc(F)cc1 (stereo not drawn) | inactive
5 | Fc1ccc(NC(=S)NC2CCCCC2)c(F)c1F | inconclusive: 10 µM [activator, partial curve]
6 | CC(=NCc1cccnc1)c1c(O)n(-c2ccccc2C)c(=O)[nH]c1=O | active: 3.55 µM
7 | Cc1ccccc1C(=O)N1CCN(c2ccc(NC(=O)c3ccc4c(c3)OCCO4)cc2)CC1 | inconclusive: 20 µM [activator, single point]
8 | Cc1cc(C)nc(-n2nc(C)cc2NC(=O)c2ccc(S(=O)(=O)N3CCOCC3)cc2)n1 | inconclusive: 3.98 µM [activator, single point]
9 | CSc1nc(N)c(C(=O)Nc2ccc([N+](=O)[O-])cc2)s1 | inconclusive: 17.8 µM [activator, single point]
10 | CCOC(=O)N1CCN(CCC(=O)Nc2ccccc2OC)CC1 | inconclusive: 15.8 µM [activator, single point]
11 | NC(=S)N/N=C\c1c2ccccc2cc2ccccc12 | active: 14.1 µM
12 | CCOc1ccc(-c2cc(C(=O)N/N=C(\C)c3cccnc3)c3ccccc3n2)c(OCC)c1 | inconclusive: 2.82 µM [activator, single point]
13 | O=C(c1ccc2c(c1)OCO2)C1CCCN(C(=O)C2CCOCC2)C1 (stereo not drawn) | inactive
14 | O=C(CNS(=O)(=O)c1ccc2ccccc2c1)OCc1csc(-c2ccccc2)n1 | active: 3.16 µM
15 | COC(=O)c1ccc(COC(=O)C(CCSC)NC(=O)COc2ccccc2)cc1 (stereo not drawn) | inconclusive: 3.98 µM [activator, single point]
16 | N#Cc1nc(-c2ccc(F)cc2)oc1N1CCN(C(=O)c2ccco2)CC1 | inconclusive: 2 µM [activator, full curve]
17 | O=C(COc1cc(O)c2c(=O)cc(-c3ccccc3)oc2c1)c1cccc([N+](=O)[O-])c1 | inactive
18 | CCn1cc(/C=C(\NC(=O)c2ccccc2OC)C(=O)NCCCN2CCOCC2)c2ccccc21 | inconclusive: 20 µM [activator, single point]
19 | C=CCN(C(=O)Nc1ccc(F)cc1)C1CC(=O)N(c2ccc(OC)cc2)C1=O (stereo not drawn) | inconclusive: 4.47 µM [activator, single point]
20 | CCOc1ccccc1N1CCN(C(=O)c2cc(-c3cc(OC)ccc3OC)nc3ccccc23)CC1 | inconclusive: 4.47 µM [activator, partial curve]
21 | COc1ccc(-c2nnn(CC(=O)NCc3ccccc3)n2)cc1OC | inconclusive: 4.47 µM [activator, single point]
22 | CCC1CCCCN1CCCNC(=O)c1ccc(CS(=O)(=O)c2ccc(Br)cc2)o1 (stereo not drawn) | inconclusive: 20 µM [activator, single point]
23 | CC(=O)c1ccc(C(=O)N(C)C2CCCN(Cc3ccccc3F)C2)s1 (stereo not drawn) | inconclusive: 14.1 µM [activator, single point]
24 | CC(C)CCN(C(=O)Nc1ccccc1)C(C)c1cccs1 (stereo not drawn) | inactive
25 | CC(=O)N1CCC2(CC1)C(C#N)=C(N)Oc1n[nH]c(C(F)(F)F)c12 | inactive

Row | SMILES | Potency
26 | Cc1cc(OCC(=O)NCc2cccnc2)c2c(C)c(C)c(=O)oc2c1 | inconclusive: 11.2 µM [activator, single point]
27 | Nc1ccc(S(=O)(=O)O)cn1 | inactive
28 | O=S1(=O)CCN2C=C(Br)C=C(Br)C2=N1 | inconclusive: 14.1 µM [activator, single point]
29 | CC(c1cc2ccccc2s1)N(O)C(N)=O (stereo not drawn) | inactive
30 | O=[N+]([O-])c1cc(/C=N/Nc2nc3ccccc3[nH]2)c(O)cc1O | active: 15.8 µM
31 | COCc1nnc(NC(=O)CCCOc2ccccc2OC)s1 | inconclusive: 20 µM [activator, single point]
32 | Cc1c(-c2ccccc2)[n+](=O)c(-c2ccco2)c(C)n1[O-] | inactive
33 | COc1ccc(CNC/C=C/c2ccccc2)cc1 | inactive
34 | CCOC(=O)c1ccc(NS(=O)(=O)c2cc3c(cc2C)NC(=O)CO3)cc1 | inconclusive: 3.98 µM [activator, single point]
35 | CCCN1C(=O)SC(CC(=O)Nc2ccccc2C)C1=O (stereo not drawn) | inconclusive: 2.51 µM [activator, partial curve, poor fit]
36 | CCCc1cc(N2CCCC2)n2nc(C)c(-c3ccccc3)c2n1 | inconclusive: 11.2 µM [activator, single point]
37 | Cc1cc(C)cc(NC(=O)CCc2c(C)nn(-c3ccc(N4CCOCC4)nn3)c2C)c1 | inconclusive: 3.98 µM [activator, single point]
38 | Cc1ccc(C)c(N(C(=O)CCC(=O)Nc2cc(C)on2)C(C(=O)NC2CCCC2)c2ccco2)c1 (stereo not drawn) | inconclusive: 4.47 µM [activator, single point]
39 | O=C(O)Cn1ncc2c1-c1ccoc1CC2 | inconclusive: 20 µM [activator, single point]
40 | CC1(C)CC(=O)C2=C(C1)Nc1ccccc1NC2c1ccc2c(c1)OCO2 (stereo not drawn) | inconclusive: 11.2 µM [activator, single point]
41 | CC(C)COC(=O)C1[C@H]2C(=O)N(Cc3cccs3)C[C@]23C=C[C@H]1O3 (stereo partly drawn) | inactive
42 | O=S(=O)(c1cccs1)N1CN(CC2CCCO2)c2nc3ccccc3nc21 (stereo not drawn) | inconclusive: 17.8 µM [activator, single point]
43 | CCN(CC)C(=S)Nc1ccc(Cl)c(Cl)c1 | inconclusive: 20 µM [activator, single point]
44 | CC1(C)CC(=O)C(C=NCCN2CCN(C(=S)Nc3ccccc3)CC2)=C(O)C1 | inconclusive: 4.47 µM [activator, single point]
45 | O=S(=O)(c1cnc[nH]1)N1CCc2ccccc21 | inconclusive: 3.98 µM [activator, single point]
46 | CCOc1ccc(NC(=O)CSc2nnnn2C2CC2)cc1S(=O)(=O)N1CCCC1 | inactive
47 | Cc1cccc(N(CC(=O)NC2CC2)S(=O)(=O)c2ccc(Cl)cc2)c1 | inconclusive: 3.98 µM [activator, single point]
48 | Cc1ccc(S(=O)(=O)N(C)C)cc1NC(=S)NC12CC3CC(CC(C3)C1)C2 | inactive
49 | N#CC1(NC(=O)CSc2nnc(C3CC3)n2C2CC2)CCCCC1 | inactive
50 | CC1CC(C)CN(C(=O)CNC(=O)c2ccc3ccccc3c2)C1 (stereo not drawn) | inconclusive: 4.47 µM [activator, single point]

Row | SMILES | Potency
51 | CCN(Cc1ccccc1)S(=O)(=O)c1ccc(C(=O)N(CCCN(C)C)c2nc3cc4c(cc3s2)OCO4)cc1 | inactive
52 | CCn1c(SCC(=O)Nc2ccccc2OC)nc(O)cc1=O | inactive
53 | C/C(Cn1cnc([N+](=O)[O-])n1)=N\NC(=O)c1ccccc1O | inactive
54 | COc1ccc(OC)c(NC(=O)c2cccnc2Sc2cc(C)ccc2C)c1 | inconclusive: 0.631 µM [activator, full curve, poor fit]
55 | COc1cc(NC(=O)CC2NCCNC2=O)cc(OC)c1 (stereo not drawn) | inactive
56 | Cc1ccc(C(=O)CC(=O)c2ccccc2)cc1 | inconclusive: 20 µM [activator, partial curve, poor fit]
57 | Cc1cc(/C=N/NC(N)=S)c(C)n1-c1ccc(Cl)cc1 | active: 11.2 µM
58 | O=c1c(N2CCOCC2)nsnc1N1CCOCC1 | inconclusive: 17.8 µM [activator, single point]
59 | Cc1ccccc1S(=O)(=O)Cc1ccc(C(=O)NCc2cccnc2)o1 | inactive
60 | Cc1cccc(N2C(=O)SC(SC(=Nc3ccccc3)Nc3ccccc3)C2=O)c1 (stereo not drawn) | inconclusive: 20 µM [activator, single point]
61 | CCC(C)N1C(=O)/C(=C/c2c(NCCCOC(C)C)nc3c(C)cccn3c2=O)SC1=S (stereo not drawn) | inactive
62 | COc1ccc(C(=O)Nn2c(C)nnc2-n2nc(C)cc2C)cc1OC | inconclusive: 3.16 µM [activator, single point]
63 | Cc1ccc(N2C(=O)NC(=O)/C(=C\c3cnc(-c4ccccc4)nc3)C2=O)cc1 | inconclusive: 12.6 µM [activator, partial curve]
64 | CCCCC(CC)CNC(=O)C(=O)c1ccccc1NC(C)=O (stereo not drawn) | inconclusive: 3.55 µM [activator, single point]
65 | COc1ccccc1CNC(=O)CSc1ccc(-c2ccccn2)nn1 | inconclusive: 11.2 µM [activator, partial curve]
66 | CCOc1cc(NC(=S)Nc2ccccc2OC)c(OCC)cc1NC(=O)c1ccccc1C | inactive
67 | CC(=O)NC(Cc1ccc(C)cc1)C(=O)NC1CCN(c2ncccc2[N+](=O)[O-])CC1 (stereo not drawn) | inactive
68 | CCOC(=O)c1nn(-c2ccc(OCC)cc2)c(C)c1C(C)=O | inconclusive: 22.4 µM [activator, partial curve]
69 | CCC(CO)NC(=O)c1ccccc1C(F)(F)F (stereo not drawn) | inactive
70 | Cc1cc(NCc2ccco2)nc2cc(O)ccc12 | inactive
71 | O=C(Nc1ccc(Nc2ccccc2)cc1)c1ccc(Br)cc1 | inconclusive: 4.47 µM [activator, single point]
72 | O=C(Nc1ccc(Cl)cc1)c1ccc(-n2cccn2)c([N+](=O)[O-])c1 | inactive
73 | O=C(NCc1ccccn1)c1ccc(OC2CCN(Cc3ccc(Cl)s3)CC2)cc1 | inconclusive: 2.24 µM [activator, full curve]

Looked up above.
Potency, CC1CC(C)CN(C(=O)CNC(=O)c2ccc3ccccc3c2)C1 (stereo not drawn) is entered as inconclusive: 4.47 µM [activator, single point]
Potency, CCCCC(CC)CNC(=O)C(=O)c1ccccc1NC(C)=O (stereo not drawn) is entered as inconclusive: 3.55 µM [activator, single point]
Potency, CC(=O)NC(Cc1ccc(C)cc1)C(=O)NC1CCN(c2ncccc2[N+](=O)[O-])CC1 (stereo not drawn) is entered as inactive
Potency, COc1ccc(OC)c(NC(=O)c2cccnc2Sc2cc(C)ccc2C)c1 is entered as inconclusive: 0.631 µM [activator, full curve, poor fit]
